Consider two substances from article PMC5309953.

The target in assay [1] is T1, MOV10 (RISC complex RNA helicase) (human (endogenous in HEK293 and A549)) (UniProt Q9HCE1).
T1 sequence: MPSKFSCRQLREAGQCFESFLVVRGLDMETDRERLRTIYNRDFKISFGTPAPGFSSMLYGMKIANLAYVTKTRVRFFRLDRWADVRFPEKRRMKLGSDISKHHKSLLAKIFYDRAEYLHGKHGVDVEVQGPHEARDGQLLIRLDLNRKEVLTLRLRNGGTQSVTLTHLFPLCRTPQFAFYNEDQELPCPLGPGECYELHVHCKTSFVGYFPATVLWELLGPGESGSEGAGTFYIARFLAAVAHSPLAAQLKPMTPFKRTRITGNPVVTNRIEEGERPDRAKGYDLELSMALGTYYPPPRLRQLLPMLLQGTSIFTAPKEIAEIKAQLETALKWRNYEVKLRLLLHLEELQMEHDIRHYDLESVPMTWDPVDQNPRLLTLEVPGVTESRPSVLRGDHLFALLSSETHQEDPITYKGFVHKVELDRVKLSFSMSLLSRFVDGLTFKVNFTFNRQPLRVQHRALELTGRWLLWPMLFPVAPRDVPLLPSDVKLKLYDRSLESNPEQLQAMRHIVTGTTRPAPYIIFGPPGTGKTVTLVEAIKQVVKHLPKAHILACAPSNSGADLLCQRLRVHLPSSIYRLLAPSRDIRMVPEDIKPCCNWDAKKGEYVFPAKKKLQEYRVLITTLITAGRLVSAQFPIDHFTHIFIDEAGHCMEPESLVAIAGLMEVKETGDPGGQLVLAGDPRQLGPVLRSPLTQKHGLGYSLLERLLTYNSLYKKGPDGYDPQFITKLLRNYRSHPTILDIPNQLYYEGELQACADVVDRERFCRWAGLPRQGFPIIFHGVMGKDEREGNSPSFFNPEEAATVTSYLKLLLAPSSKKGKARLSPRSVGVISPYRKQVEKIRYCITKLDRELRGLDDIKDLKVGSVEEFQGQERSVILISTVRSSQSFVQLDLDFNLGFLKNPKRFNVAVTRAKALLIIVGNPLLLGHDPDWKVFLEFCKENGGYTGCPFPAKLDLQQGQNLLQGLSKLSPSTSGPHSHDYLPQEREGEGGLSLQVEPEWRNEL
Put plainly: co-IP; reciprocal: HEK293 cells transfected with GFP-IRAV; IP with an antibody to endogenous MOV10 (normal IgG as control), Western blot for IRAV.

Assay [2] deals with GFP-IRAV (IRAV with an amino-terminal green fluorescent protein fusion) (human) (UniProt Q9NUL5). As to the kind of experiment: co-IP; HEK293 cells, uninfected or DENV-infected, transfected with GFP-IRAV (GFP-CAT as control); IP of lysates with an antibody to GFP, Western blot for the partner.

No constants are given. Whether binding was seen depends on the method and setting. In cells and extracts the contact can be indirect. Some entries that bind do so weakly or less than the wild type.

Turning to “GFP-IRAV (IRAV with an amino-terminal green fluorescent protein fusion) (from UniProt Q9NUL5 1-291)”, in assay [1], the binding result is “binds”.
Consider HuR (ELAV1) (from UniProt Q15717 1-326), for which, in assay [2], the binding result was “binds”.
